Data reported in patent US20230270764A1, “COMPOSITION COMPRISING CANNABINOIDS, TERPENES, AND FLAVONOIDS FOR TREATING DEPRESSION” (priority 2020, published 2023).
At least one compound was matched to its structure with a doubt left.

Tests used:
[1] = system: BV2 microglial cells; assay: α-synuclein-induced TNFα secretion by BV2 microglia cell cultures; format: cell-based, murine; settings: Example 8; celecoxib alone 5 µM, not 1 or 2.5 µM
Experimental: (§1) The BV2 cells are cultured at 37° C. in a humidified atmosphere with 5% CO2 in high D-glucose (4.5 g/L) Dulbecco’s modified Eagle’s medium (Sigma, Rehovot, Israel) supplemented with 5% heat-inactivated fetal bovine serum, streptomycin (100 µg/ml), and penicillin (100 units/ml) and sodium pyruvate (1 mM; all from Biological Industries Ltd., Kibbutz Beit Haemek, Israel). 24 hours before experiments with LPS stimulation, the BV2 cells are split into 24 well plates, 2×10^5 cells per well, covered with 1 ml of growth medium and allowed to attach overnight. 24 hr before experiments with α-synuclein, the BV2 cells are split into 96-well plates, 50,000 (5×10^4) cells per well, covered with 200 µl of growth medium and allowed to attach overnight. […]

[2] = system: LPS-injected mice; assay: Sucrose preference test in the LPS-induced model of depression; format: in vivo; settings: Example 18; celecoxib 10, 20, 30 mg/kg or CBD 30 mg/kg by themselves
Description: In a preliminary screening experiment, subjects were 4-6 months-old male C57BL/6 (Jackson Laboratories, USA). Animals were housed 2-3/cage, kept in an air-conditioned room (23+°C) and given ad libitum access to food and water. The mice were kept in a reversed light/dark cycle, with lights off from 7 a.m. to 7 p.m. All experiments were approved by the Hebrew University of Jerusalem Ethics Committee on Animal Care and Use. In preparation for the Sucrose Preference Test, mice were habituated 2-3 times to sucrose drinking, by exposing them overnight to two graduated tubes, one containing water and the other containing sucrose solution (1%, w/v). Water and sucrose consumption were measured, and sucrose preference was computed by dividing the amount of sucrose consumed by drinking (ml sucrose) by the total drinking volume (ml of sucrose + water). […] In this test, the measured locomotor activity reflects not only motor capacity, but particularly the innate motivation for spatial exploration (which increases the distance travelled) and the anxiety level (which reduces the distance travelled, in general, and particularly the distance and time spent in the center of the open field). […] Social exploration, defined as the time of near contact between the nose of the subject and the juvenile in the small cage was recorded for 4 min, using computerized in-house software. […]

[3] = system: BV2 microglial cells; assay: LPS-induced TNFα secretion by BV2 microglia cell cultures (ELISA); format: cell-based, murine; settings: FIG. 8C; when CBD was added, vs celecoxib by itself
Experimental: (§2) The BV2 murine microglial cell line is used in these studies.
as §1

[4] = system: BV2 microglial cells; assay: LPS-induced IL-1β release by BV2 microglia cell cultures (ELISA); format: cell-based, murine
Experimental: as §2, §1

[5] = system: LPS-injected mice; assay: Open field test in the LPS-induced model of depression; format: in vivo; settings: Example 18
Description: Animals were housed 2-3/cage, kept in an air-conditioned room (23+°C) and given ad libitum access to food and water. The mice were kept in a reversed light/dark cycle, with lights off from 7 a.m. to 7 p.m. All experiments were approved by the Hebrew University of Jerusalem Ethics Committee on Animal Care and Use. In preparation for the Sucrose Preference Test, mice were habituated 2-3 times to sucrose drinking, by exposing them overnight to two graduated tubes, one containing water and the other containing sucrose solution (1%, w/v). Water and sucrose consumption were measured, and sucrose preference was computed by dividing the amount of sucrose consumed by drinking (ml sucrose) by the total drinking volume (ml of sucrose + water). One day later, the weight of the mice and the food in their cages was weighed for later analysis of food consumption and body weight changes. Groups of mice were injected intraperitoneally (i.p.) with either vehicle (cremophor, ethanol and PBS, 1:1:18 (v/v/v)) or a cannabinoid-based formulation (by itself or with another cannabinoid, or a terpene or a flavonoid). One hour later, each of these groups was injected with LPS (330 µg/kg). All injections were administered at a dose of 10 ml/kg. Four hours following the LPS injection, mice were tested in the Open-Field Test. In this test, the measured locomotor activity reflects not only motor capacity, but particularly the innate motivation for spatial exploration (which increases the distance travelled) and the anxiety level (which reduces the distance travelled, in general, and particularly the distance and time spent in the center of the open field). Each subject was placed near one of the walls of a white 50 X 50 cm^2 arena with 40 cm high walls. The distance travelled (cm), the velocity of the movement (cm/second), the time spent (seconds), distance travelled (cm) in the center area of the arena, as well as the number of entries from the perimeter area into the center of the arena were automatically measured over a 4-minute period, using EthoVision XT video tracking system and software (Noldus, The Netherlands). Twenty-four hours after the LPS injection, mice were tested in the Social Exploration Test. In this test, the subject was placed in an observation cage containing a small metal wire mesh cage with a conspecific mouse inside it. Social exploration, defined as the time of near contact between the nose of the subject and the juvenile in the small cage was recorded for 4 min, using computerized in-house software. Sucrose preference was assessed, as described above, between 8 to 27 hr post LPS injection. Body weight and weight of the food were measured two hours before the LPS injection, and again after 24 hours, and the change in body weight and food consumption were calculated. […]

SMILES: Cc1ccc(-c2cc(C(F)(F)F)nn2-c2ccc(S(N)(=O)=O)cc2)cc1 [celecoxib]
- levels of TNFα released in response to α-Synuclein [1]: decreased significantly
- sucrose preference vs vehicle-LPS group [2]: no significant effects
- IC50 of celecoxib for TNFα [3]: markedly reduced
- inhibition of LPS-induced IL-1β secretion ([4]; Example 7, celecoxib by itself): did not produce significant inhibition
- IC50 of celecoxib for IL-1β ([4]; FIG. 8D, when CBD was added, vs celecoxib by itself): markedly reduced
- distance travelled in open field vs vehicle-LPS group ([5]; 7 months-old male mice, 3 daily i.p. injections, LPS 250 µg/kg, CLX 10 and 20 mg/kg or CBD 30 mg/kg by themselves): did not have significant effects
- distance travelled in open field vs vehicle-LPS group ([5]; celecoxib 30 mg/kg): significant increase in distance travelled
- number of entries into the center area vs vehicle-LPS group ([5]; celecoxib 30 mg/kg (not 10 or 20)): significant increase in the number of entries
- distance moved in the center of the open field vs vehicle-LPS group ([5]; celecoxib 10, 20, 30 mg/kg or CBD 30 mg/kg by themselves): no significant effects
